Source: article PMC12624062
These are yes or no findings as the source states them, for the method shown. Binding seen in cells or lysates may run through a third protein. Here binding means that the protein was enriched with, or labelled near, the bait; the list need not be complete. Each block holds one binder with its values, some of them ahead of it.

Amino acid sequences for entries named in this document (tags omitted).
UniProt Q8CDG1: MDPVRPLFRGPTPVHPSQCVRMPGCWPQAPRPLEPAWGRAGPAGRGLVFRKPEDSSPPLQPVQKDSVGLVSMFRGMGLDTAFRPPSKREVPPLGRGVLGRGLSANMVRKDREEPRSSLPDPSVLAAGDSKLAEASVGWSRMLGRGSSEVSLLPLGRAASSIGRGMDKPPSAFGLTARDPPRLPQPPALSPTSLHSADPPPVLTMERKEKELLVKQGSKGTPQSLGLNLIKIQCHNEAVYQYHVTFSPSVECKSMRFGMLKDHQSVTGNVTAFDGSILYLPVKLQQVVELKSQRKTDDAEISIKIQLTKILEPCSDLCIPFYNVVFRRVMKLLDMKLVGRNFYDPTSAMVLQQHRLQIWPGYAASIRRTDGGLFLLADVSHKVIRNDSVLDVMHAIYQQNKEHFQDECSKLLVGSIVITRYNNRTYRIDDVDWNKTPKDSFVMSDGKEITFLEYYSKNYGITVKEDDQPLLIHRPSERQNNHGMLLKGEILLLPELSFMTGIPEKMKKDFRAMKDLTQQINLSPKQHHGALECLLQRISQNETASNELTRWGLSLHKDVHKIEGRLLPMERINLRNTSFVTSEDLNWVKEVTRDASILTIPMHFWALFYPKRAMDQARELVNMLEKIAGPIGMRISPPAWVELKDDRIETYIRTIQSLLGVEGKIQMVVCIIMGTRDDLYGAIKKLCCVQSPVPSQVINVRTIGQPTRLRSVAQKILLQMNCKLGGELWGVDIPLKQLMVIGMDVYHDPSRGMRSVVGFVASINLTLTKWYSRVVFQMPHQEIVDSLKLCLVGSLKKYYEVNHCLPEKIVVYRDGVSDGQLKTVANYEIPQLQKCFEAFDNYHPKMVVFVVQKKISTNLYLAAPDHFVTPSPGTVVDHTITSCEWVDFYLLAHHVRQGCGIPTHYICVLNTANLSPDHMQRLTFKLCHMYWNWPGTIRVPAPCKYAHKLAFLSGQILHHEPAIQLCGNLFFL

Legend:
Experiment in all cases: affinity purification with mass spectrometry; P20 wild-type mouse testis lysates; IP with PIWIL2, ASZ1 or TDRD1 antibodies against rabbit IgG control; Protein A/G agarose; LC-MS; n = 3
[1] = molecular target: PIWIL2 (endogenous, mouse testis) (mouse (endogenous in testis)) (UniProt Q8CDG1)
[2] = molecular target: T1, ASZ1 (endogenous, mouse testis) (mouse (endogenous in testis)) (UniProt Q8VD46)
T1 sequence: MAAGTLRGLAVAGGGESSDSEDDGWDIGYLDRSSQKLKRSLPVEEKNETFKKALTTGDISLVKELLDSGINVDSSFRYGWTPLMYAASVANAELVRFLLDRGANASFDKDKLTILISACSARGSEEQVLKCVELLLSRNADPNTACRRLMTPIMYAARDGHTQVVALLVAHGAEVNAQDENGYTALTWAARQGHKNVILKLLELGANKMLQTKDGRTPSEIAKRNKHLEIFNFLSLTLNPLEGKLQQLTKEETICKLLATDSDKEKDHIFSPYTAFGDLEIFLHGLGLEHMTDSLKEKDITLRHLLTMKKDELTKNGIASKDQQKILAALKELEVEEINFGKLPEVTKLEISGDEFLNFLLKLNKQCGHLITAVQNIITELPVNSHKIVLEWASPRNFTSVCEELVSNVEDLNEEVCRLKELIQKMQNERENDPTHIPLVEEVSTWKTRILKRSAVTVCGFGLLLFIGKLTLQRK

[3] = molecular target: PIWIL2 (endogenous, mouse testis) (mouse (endogenous in testis)), Q8CDG1; settings: remark: other sources report otherwise
[4] = molecular target: T2, ASZ1 (endogenous, mouse testis) (mouse (endogenous in testis)), Q8VD46; settings: remark: other sources report otherwise
T2 chain: T1 sequence

binding [1]: binds | binding [2]: binds weakly
B1: TDRD5 (endogenous, mouse testis) (protein, UniProt Q5VCS6 1-1040)
chain: MSEQERIQDCLRKEIRSLLISTKDGLTPQQLEKEYLLMVGNHLPLRILGYRSTMELVLDMPDVVSVCPGGDGTVILKAIPDESTKGIASLVAKQRRSHKVRNSMPKGRPSICSGRVPYRGRVPPILPAVVKSELKDLLALSPVLLSDFEKAFARRFGRSFQYMQYGFLSMFEVLNAASDVISVEQTRAGSLLTLKKSVSEDKQRGWPAGKVFTQPFRMKQQGSYSTGFPVMKAHFSQPISNMEPPKQVLSMAKTPTFNSVEASRLNHTEKLNQLESTFKSVIAQIGPGGTVDPELKRKIQFVVSKFPQGLFISKLLGEFELTFKEQLSPKQLGFLNVTELVGALSDILRVEFSEERQDLLVFDADLKPLPSGGPLSSVRNSCLVQPDKKTEANPWTSSLSRNSLSTVAVKKTTWDCPLKNQKEPEQKIYKKPNLVVKPLQLQVETNKPQLSLSVANHDIPPDAVRAKKLCRLPPLDTSTLVGVFVEYIISPSQFYIRIYSRDSSELLEDMMIEMRRCYSNQLVSDRYIMPEYFIQPGHLCCVKISEDKWWYRVIIHRILGKKEVEVFYPDFGNIGTVQKSSLRFLKCCYTKLPAQAIPCSLAWVRPAEEHWTARAILHFQKLCGLKPLVGVVDEYIDGILNIFLCDTSSNEDVYFHHVLRTEGHAIVCRENAPSKGFRDFNPPALYTNASSAGDMVLTDLGHPAQQHYLNEDQEILQQAQQDINDGKCISYLKSAPKELLKDSKLSSLKTHKSCEEDPRWSILQPKDLKEENEDEVPTGMPCLESVTIGDDVWDENWLPLQAKMGKAGSPASQLFTSNLVGKKQYQTGGEMAQKDWCFSTSKDIWDDSWQPLGLANDVKGGIHTPEGPIAQEKNTSTTRIQQQPDLQYPLDSSTLPKLEEFYISLIKSQQSAERSQSEPASIQTHAGRAASKALSSTPAVGDSPENHSGSVESSPGSLKKEDVSNSRAEATAKDKSQGAIDQLSFILSPQHQISQKLYIPRSTATAVLGAAARLATSRSLLHWYPSVKGGKLEAERDGVK

binding [3]: binds
B2: GPAT2 (endogenous, mouse testis), Q14DK4 1-801 (protein)
chain: MDTMLKSNPQTQQRSNHNGQETSLWSSSFGMKMEAITPFLGKYRPFMGRCCQTCTPKSWESLFHRSIMDLGFCNVILVKEENTRFRGWLVRRLCYFLWSLEQHIPTSFDASQKIMENTGVQNLLSGRVPGAAGEGQAPELVKKEVQRILGHIQTTPRPFLLRLFSWALLWFLNRLFLNVQLHKGQMKMVQKAVQEGSPLVFLSTHKSLLDGFLLPFVLFSQGLGVVRVALDSRTCSPALRALLRKLGGLFLPPEVNLSLDNSEGILARAVVRATVEELLTSGQPLLIFLEEPPGSPGPRLSALGQAWLGVVIQAVQAGIISDATLVPVAIAYDLVPDAPCNMNHDLAPLGLWTGALAVFRRLCNCWGCNRRVCVRVHLAQPFSLQEYTINARSCWDSRQTLEHLLQPIVLGECSVVPDTEKEQEWTPPTGLLLALKEEDQLLVRRLSRHVLSASVASSAVMSTAIMATLLLLKHQKGVVLSQLLGEFSWLTEETLLRGFDVGFSGQLRCLAQHTLSLLRAHVVLLRVHQGDLVVVPRPGPGLTHLARLSMELLPTFLSEAVGACAVRGLLAGRVPPEGPWELQGIELLSQNELYRQILLLLHLLPQDLLLPQPCQSSYCYCQEVLDRLIQCGLLVAEETPGSRPACDTGRQHLSAKLLWKPSGDFTDSESDDFEEPGGRCFRLSQQSRCPDFFLFLCRLLSPILKAFAQAATFLHLGQLPDSEVAYSEKLFQFLQACAQEEGIFECADPNLAISAVWTFKDLGVLQEMPSPTGPQLHLSPTFATRDNQDKLEQFIRQFICS

binding [1]: binds | binding [2]: binds
B3: MOV10L1 (endogenous, mouse testis) (protein, UniProt Q99MV5 1-1187)
chain: MIDDLIYFSNDAVTSTVLLNVGQEVIAVVEENKVSNGLKAIRVEAVSDKWEDDSKNSSKGLSDSSPRVLIGCVTSMLEGAGYISQTTYFSLESVCEGFHPCKGDWVEAEYWIRPGTWSSEAISVKPLRYKRVDKVCISSLCGRNGVIEDSIFFSLDSLKLPEGYIPRRHDIVNAVVVESSQSCYIWRALCMTPVKRDATLGEAPQEPYGALLLKNKGDIEVTRMTSFGTLKEGESKSIVIWIENKGKFSRELVSCRLANWDKAHQFRFETQGRSKSCPGAAAGSVPEGENVNSLNHHREDKTDEIPESRLANSTEISPDGCACKEESREKGNTPEKQEPEPGGLIPPGEKTHIVVTCSAKNPGRCKELLLLCFSDFLIGRHLEVSVVSSEEALIAVREPFSWKKPKSSQTLVSAKTTVVVTTQKRNSRRQLPSFLPQYPIPDRLKKCVEQKIDILTFQPLLAELLNMSNYKEKFSTLLWLEEIHAEIELKEYNMSRVVLKRKGDLLVLEVPGLAESRPSLYAGDKLILKSQEYNGHVIEYIGYVMEIHEEDVTLKLNPGFEQMYNFEPMDVEFTYNRTTSRRCHYALEQVIHLGVKVLFPEEIILQSPQVTGNWSLAQDTKNDGQSITNITRNDGQSMTKVTRNDSQSITNIIRNDGQSITNVTRNDGQPITKVTRNNSQSITNITRNDGQPITKNKKTVKDQTKHTTEERHVGTTDQPEKASSTAETMDEIQIPKARDKEFFNPVLNENQKLAVRRILSGDCRPLPYILFGPPGTGKTVTIIEAVLQVHYALPDSRILVCAPSNSAADLVCLRLHESKVPKPAAMVRVNATCRFEETIIDAIKPYCRDGEDIWRASRFRIIITTCSSAGLFYQIGVRVGYFTHVFVDEAGQASEPECLIPLGLISDINGQIVLAGDPMQLGPVIKSRLAMAYGLNVSMLERLMSRPAYLRDENAFGACGAYNPLLVTKLVKNYRSHSALLALPSRLFYHRELEVCADPKVVTSLLGWEKLPRKGFPLIFHGVRGNEAREGRSPSWFSPAEAVQVMRYCCLLARSVSSQVSSKDIGVITPYRKQVEKIKILLRNVDLTDIKVGSVEEFQGQEYLVIVISTVRSNEDRFEDDRYFLGFLSNSKRFNVAITRPKALLIILGNPHVLVRDPCFGALLEYSVSNGVYTGCDLPPELQALQK

binding [3]: binds | binding [4]: binds
B4: TDRKH (endogenous, mouse testis), Q80VL1 1-560 (protein)
chain: MSTERTSWTNLSTIQKIALGLGIPASATVAYILYRRYRESREERLTFVGEDDIEIEMRVPQEAVKLIIGRQGANIKQLRKQTGARIDVDTEDVGDERVLLISGFPVQVCKAKAAIHQILTENTPVFEQLSVPQRSVGRIIGRGGETIRSICKASGAKITCDKESEGTLLLSRLIKISGTQKEVAAAKHLILEKVSEDEELRKRIAHSAETRVPRKQPISVRREEVTEPGGAGEAALWKNTNSSMGPATPLEVPLRKGGGDMVVVGPKEGSWEKPNDDSFQNSGAQSSPETSMFEIPSPDFSFHADEYLEVYVSASEHPNHFWIQIIGSRSLQLDKLVSEMTQHYENSLPEDLTVHVGDIVAAPLSTNGSWYRARVLGTLENGNLDLYFVDFGDNGDCALKDLRALRSDFLSLPFQAIECSLARIAPTGEEWEEEALDEFDRLTHCADWKPLVAKISSYVQTGISTWPKIYLYDTSDEKKLDIGLELVRKGYAVELPEDMEENRTVPNMLKDMATETDDSLASILTETKKSPEEMPHTLSCLSLSEAASMSGDDNLEDDLF
